{
  "source": "PubChem BioAssay AID330",
  "about": "(DTP/NCI, 2004)",
  "system": "P388 leukemia ip, CD2F1 mice, survival T/C",
  "test": "NCI In Vivo Anticancer Drug Screen. Data for tumor model P388 Leukemia (intraperitoneal) in CD2F1 (CDF1) mice",
  "conditions": "T/C endpoint: median survival time, higher T/C = longer survival",
  "key": {"[1]": {"conditions": "dose: 120.0 mg/kg/injection, schedule: Q01DX005 (ip), vehicle: Klucel (hydroxypropylcellulose) (HPC)"}, "[2]": {"conditions": "dose: 240.0 mg/kg/injection, schedule: Q01DX005 (ip), vehicle: Klucel (hydroxypropylcellulose) (HPC)"}, "[3]": {"conditions": "dose: 240.0 mg/kg/injection, schedule: Q01DX005 (ip), vehicle: saline with Tween-80"}, "[4]": {"conditions": "dose: 200.0 mg/kg/injection, schedule: Q01DX005 (ip), vehicle: saline with Tween-80"}},
  "note": "The list is a part of this screen's results and no random one: it is rich in T/C values a quarter to a half above the control, in often repeated tests (any T/C) and in doses without a T/C. Further doses and runs are listed elsewhere. T/C: endpoint of the treated group in % of that of the vehicle group. Some entries give survivors of the animals treated and no T/C: the source holds a T/C of zero for them, seemingly a mark for toxic or unscored doses. Some survivor counts are full or nearly so, which does not show that the dose was tolerated: survival well below the control is almost never listed, so the zero probably covers shortened survival too. Survivors were counted at the toxicity check, usually on the fifth day, unless a day is given; later deaths do not show. Schedule codes are those of the source, read here as Q, the interval in days (D) or hours (H), X, the number of doses. Where survival is the endpoint, the PubChem record calls one and a half times the control and up active, and a quarter to a half above the control has no call in these data; cut-offs in other NCI protocols can differ.",
  "data": [
    {"smiles": "CCCCCCCCCC(O)CCCCCC", "note": "(centres undefined)", "values": [
      {"measurement": "survivor count", "setting": "dose: 300.0 mg/kg/injection, schedule: Q01DX009 (ip), vehicle: other", "value": "2 of 6"}
    ]},
    {"smiles": "CCC[CH2][Sn]([CH2]CCC)[S]CC(N)C(=O)O", "note": "(centres undefined)", "values": [
      {"measurement": "survivor count", "setting": "dose: 1.87 mg/kg/injection, schedule: Q01DX005 (ip), vehicle: Klucel (hydroxypropylcellulose) (HPC)", "value": "3 of 6"},
      {"measurement": "survivor count", "setting": "dose: 7.5 mg/kg/injection, schedule: Q01DX005 (ip), vehicle: Klucel (hydroxypropylcellulose) (HPC)", "value": "3 of 6"},
      {"measurement": "survivor count", "setting": "dose: 15.0 mg/kg/injection, schedule: Q01DX005 (ip), vehicle: Klucel (hydroxypropylcellulose) (HPC)", "value": "0 of 6"},
      {"measurement": "survivor count", "setting": "dose: 60.0 mg/kg/injection, schedule: Q01DX005 (ip), vehicle: Klucel (hydroxypropylcellulose) (HPC)", "value": "0 of 6"},
      {"measurement": "survivor count", "setting": "[1]", "value": "0 of 6"},
      {"measurement": "survivor count", "setting": "[2]", "value": "0 of 6"}
    ]},
    {"smiles": "O=C1C(Br)=CC2C1C1C=CC2(Br)C1=O", "note": "(centres undefined)", "values": [
      {"measurement": "survivor count", "setting": "[3]", "value": "0 of 6"}
    ]},
    {"smiles": "COc1cccc2c1C(=O)c1c(O)c3c(c(O)c1C2=O)C[C@@](O)(C(C)=O)C[C@@H]3OC1CC([N+]([O-])(Cc2ccccc2)Cc2ccccc2)C(O)C(C)O1", "note": "(some centres undefined)", "values": [
      {"measurement": "T/C", "setting": "dose: 12.5 mg/kg/injection, schedule: Q04DX003 (ip), vehicle: distilled water + Tween-80", "value": "136 % of control"}
    ]},
    {"smiles": "O=C(NCCCl)N1CCC(CN=c2cc3n(-c4ccc(Cl)cc4)c4ccccc4nc-3cc2Nc2ccc(Cl)cc2)CC1", "values": [
      {"measurement": "survivor count", "setting": "dose: 30.0 mg/kg/injection, schedule: Q01DX005 (ip), vehicle: saline with Tween-80", "value": "6 of 6"},
      {"measurement": "survivor count", "setting": "dose: 60.0 mg/kg/injection, schedule: Q01DX005 (ip), vehicle: saline with Tween-80", "value": "6 of 6"}
    ]},
    {"smiles": "COc1ccc(CC2C(=O)NC(C)C(=O)N(C)C3Cc4ccc(cc4)Oc4cc(ccc4OC(C)=O)CC(C(=O)NC(C)C(=O)NC(C)C(=O)N2C)N(C)C3=O)cc1", "note": "(centres undefined)", "values": [
      {"measurement": "T/C", "setting": "dose: 0.25 mg/kg/injection, schedule: Q01DX009 (ip), vehicle: none", "value": "127 % of control"},
      {"measurement": "T/C", "setting": "dose: 0.5 mg/kg/injection, schedule: Q01DX009 (ip), vehicle: none", "value": "142 % of control"},
      {"measurement": "T/C", "setting": "dose: 1.0 mg/kg/injection, schedule: Q01DX009 (ip), vehicle: none", "value": "143 % of control"}
    ]},
    {"smiles": "O=c1c2ccccc2sc2c([N+](=O)[O-])ccc(NCCNCCO)c12", "values": [
      {"measurement": "T/C", "setting": "dose: 12.5 mg/kg/injection, schedule: Q01DX009 (ip), vehicle: saline with Tween-80", "value": "133 % of control"},
      {"measurement": "T/C", "setting": "dose: 25.0 mg/kg/injection, schedule: Q01DX009 (ip), vehicle: saline with Tween-80", "value": "141 % of control"},
      {"measurement": "survivor count", "setting": "dose: 100.0 mg/kg/injection, schedule: Q01DX009 (ip), vehicle: saline with Tween-80", "value": "6 of 6"},
      {"measurement": "survivor count", "setting": "dose: 200.0 mg/kg/injection, schedule: Q01DX009 (ip), vehicle: saline with Tween-80", "value": "6 of 6"}
    ]},
    {"smiles": "CC(C)n1c2c(c3ccccc3c1=O)C(=O)c1ccccc1-2", "values": [
      {"measurement": "survivor count", "setting": "dose: 100.0 mg/kg/injection, schedule: Q01DX005 (ip), vehicle: saline with Tween-80", "value": "5 of 5"},
      {"measurement": "survivor count", "setting": "[4]", "value": "5 of 5"}
    ]},
    {"smiles": "CC(=O)NC(Cc1ccc(N(CCCl)CCCl)cc1)C(=O)NC(CC(C)C)C(=O)O", "note": "(centres undefined)", "values": [
      {"measurement": "T/C", "setting": "dose: 12.6 mg/kg/injection, schedule: Q04DX003 (ip), vehicle: saline with Tween-80", "value": "125 % of control"},
      {"measurement": "T/C", "setting": "dose: 28.4 mg/kg/injection, schedule: Q04DX003 (ip), vehicle: saline with Tween-80", "value": "142 % of control"},
      {"measurement": "T/C", "setting": "dose: 40.0 mg/kg/injection, schedule: Q04DX003 (ip), vehicle: water", "value": "130 % of control"},
      {"measurement": "T/C", "setting": "dose: 144.0 mg/kg/injection, schedule: Q04DX003 (ip), vehicle: saline with Tween-80", "value": "127 % of control"}
    ]},
    {"smiles": "CCCCCN(CCCCC)CCCNc1c2c(nc3ccc(OC)cc13)CCCC2", "values": [
      {"measurement": "survivor count", "setting": "dose: 50.0 mg/kg/injection, schedule: Q01DX005 (ip), vehicle: saline", "value": "0 of 5"},
      {"measurement": "survivor count", "setting": "dose: 100.0 mg/kg/injection, schedule: Q01DX005 (ip), vehicle: saline", "value": "0 of 5"},
      {"measurement": "survivor count", "setting": "dose: 200.0 mg/kg/injection, schedule: Q01DX005 (ip), vehicle: saline", "value": "0 of 5"}
    ]},
    {"smiles": "CN1CCC/C1=C\\C(=O)c1ccco1", "values": [
      {"measurement": "survivor count", "setting": "[1]", "value": "0 of 6"},
      {"measurement": "survivor count", "setting": "[2]", "value": "0 of 6"}
    ]},
    {"smiles": "COc1ccc(/C=C/C(C)=N/NC(N)=S)cc1", "values": [
      {"measurement": "survivor count", "setting": "dose: 25.0 mg/kg/injection, schedule: Q01DX005 (ip), vehicle: Klucel + Tween-80", "value": "0 of 6"},
      {"measurement": "survivor count", "setting": "dose: 50.0 mg/kg/injection, schedule: Q01DX005 (ip), vehicle: Klucel + Tween-80", "value": "0 of 6"},
      {"measurement": "survivor count", "setting": "dose: 100.0 mg/kg/injection, schedule: Q01DX005 (ip), vehicle: Klucel + Tween-80", "value": "0 of 6"},
      {"measurement": "survivor count", "setting": "dose: 200.0 mg/kg/injection, schedule: Q01DX005 (ip), vehicle: Klucel + Tween-80", "value": "0 of 6"}
    ]},
    {"smiles": "O=c1[nH]nnc2nc(N3CCOCC3)sc12", "values": [
      {"measurement": "survivor count", "setting": "dose: 400.0 mg/kg/injection, schedule: Q01DX001 (ip), vehicle: saline with Tween-80", "value": "0 of 6"}
    ]},
    {"smiles": "C=Cn1c([N+](=O)[O-])cnc1/C=C/c1ccc(C(=O)OCCN(CC)CC)cc1", "values": [
      {"measurement": "survivor count", "setting": "dose: 400.0 mg/kg/injection, schedule: Q04DX002 (ip), vehicle: Klucel (hydroxypropylcellulose) (HPC)", "value": "0 of 5"}
    ]},
    {"smiles": "CC1(C=O)CCCC2(C)[C@@H]1CCC13CC(CO)C(CC[C@H]12)C3", "note": "(some centres undefined)", "values": [
      {"measurement": "survivor count", "setting": "dose: 6.5 mg/kg/injection, schedule: Q01DX005 (ip), vehicle: Klucel (hydroxypropylcellulose) (HPC)", "value": "6 of 6"},
      {"measurement": "survivor count", "setting": "dose: 13.0 mg/kg/injection, schedule: Q01DX005 (ip), vehicle: Klucel (hydroxypropylcellulose) (HPC)", "value": "6 of 6"}
    ]},
    {"smiles": "O=c1c(N=Nc2ccc(S(=O)(=O)Nc3nccs3)cc2)c(O)n(-c2ccccc2)n1-c1ccccc1", "values": [
      {"measurement": "survivor count", "setting": "dose: 12.5 mg/kg/injection, schedule: Q01DX009 (ip), vehicle: Klucel (hydroxypropylcellulose) (HPC)", "value": "6 of 6"},
      {"measurement": "survivor count", "setting": "dose: 100.0 mg/kg/injection, schedule: Q01DX009 (ip), vehicle: Klucel (hydroxypropylcellulose) (HPC)", "value": "6 of 6"},
      {"measurement": "survivor count", "setting": "dose: 200.0 mg/kg/injection, schedule: Q01DX009 (ip), vehicle: Klucel (hydroxypropylcellulose) (HPC)", "value": "6 of 6"}
    ]},
    {"smiles": "C[P+](C)(C)C", "values": [
      {"measurement": "survivor count", "setting": "[3]", "value": "0 of 6"}
    ]},
    {"smiles": "O=C(CC(=O)C(F)(F)C(F)(F)C(F)(F)F)c1csc2ccccc12", "values": [
      {"measurement": "survivor count", "setting": "dose: 200.0 mg/kg/injection, schedule: Q04DX003 (ip), vehicle: saline with Tween-80", "value": "6 of 6"},
      {"measurement": "survivor count", "setting": "dose: 400.0 mg/kg/injection, schedule: Q04DX003 (ip), vehicle: saline with Tween-80", "value": "4 of 6"}
    ]},
    {"smiles": "O=C1OC(=O)C2=C1C1c3ccccc3C2c2ccccc21", "values": [
      {"measurement": "survivor count", "setting": "dose: 200.0 mg/kg/injection, schedule: Q01DX005 (ip), vehicle: Klucel (hydroxypropylcellulose) (HPC)", "value": "1 of 5"}
    ]},
    {"smiles": "c1ccc(Nc2ccncc2)cc1", "values": [
      {"measurement": "survivor count", "setting": "dose: 25.0 mg/kg/injection, schedule: Q01DX009 (ip), vehicle: suspension in saline", "value": "4 of 6"},
      {"measurement": "survivor count", "setting": "dose: 50.0 mg/kg/injection, schedule: Q01DX009 (ip), vehicle: suspension in saline", "value": "2 of 6"},
      {"measurement": "survivor count", "setting": "dose: 100.0 mg/kg/injection, schedule: Q01DX009 (ip), vehicle: suspension in saline", "value": "1 of 6"},
      {"measurement": "survivor count", "setting": "dose: 200.0 mg/kg/injection, schedule: Q01DX009 (ip), vehicle: suspension in saline", "value": "0 of 6"}
    ]},
    {"smiles": "Oc1ccc2ccccc2c1N=Nc1nn[nH]n1", "values": [
      {"measurement": "survivor count", "setting": "[4]", "value": "0 of 5"}
    ]}
  ]
}
